{"source": "patent US8586054B2", "about": "“Method for modulating, treating and/or preventing metabolic syndrome using MAS-G-protein-coupled receptor agonists” (Max-Delbruck-Centrum fur Molekulare Medizin, priority 2006, dated 2013)", "origin": "cited, not measured here", "details": "patients treated for arterial hypertension; compared with hydrochlorotiazide", "note": "At least one compound was matched to its structure with a doubt left."}
{"compound": "CCOc1nc2cccc(C(=O)O)c2n1Cc1ccc(-c2ccccc2-c2nnn[nH]2)cc1", "note": "[candesartan]", "values": [{"measurement": "incidence of type-2 diabetes", "result": "significant reduction"}]}
